Measured values: publication PMC7924263
No constants are given. Whether binding was seen depends on the method and setting. In cells and extracts the contact can be indirect. Here binding means that the protein was enriched with, or labelled near, the bait; the list need not be complete. For some assays here: No binding means not detected with the bait.

Chains of the proteins cited; added tags and fusions are not shown. Residues count along the entry.
UniProt P0DTC6: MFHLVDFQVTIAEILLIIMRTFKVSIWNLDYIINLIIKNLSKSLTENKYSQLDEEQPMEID
UniProt P0DTD2: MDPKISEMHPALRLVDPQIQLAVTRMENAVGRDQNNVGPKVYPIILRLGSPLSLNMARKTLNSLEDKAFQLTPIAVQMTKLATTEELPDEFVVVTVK
UniProt Q9NXV6: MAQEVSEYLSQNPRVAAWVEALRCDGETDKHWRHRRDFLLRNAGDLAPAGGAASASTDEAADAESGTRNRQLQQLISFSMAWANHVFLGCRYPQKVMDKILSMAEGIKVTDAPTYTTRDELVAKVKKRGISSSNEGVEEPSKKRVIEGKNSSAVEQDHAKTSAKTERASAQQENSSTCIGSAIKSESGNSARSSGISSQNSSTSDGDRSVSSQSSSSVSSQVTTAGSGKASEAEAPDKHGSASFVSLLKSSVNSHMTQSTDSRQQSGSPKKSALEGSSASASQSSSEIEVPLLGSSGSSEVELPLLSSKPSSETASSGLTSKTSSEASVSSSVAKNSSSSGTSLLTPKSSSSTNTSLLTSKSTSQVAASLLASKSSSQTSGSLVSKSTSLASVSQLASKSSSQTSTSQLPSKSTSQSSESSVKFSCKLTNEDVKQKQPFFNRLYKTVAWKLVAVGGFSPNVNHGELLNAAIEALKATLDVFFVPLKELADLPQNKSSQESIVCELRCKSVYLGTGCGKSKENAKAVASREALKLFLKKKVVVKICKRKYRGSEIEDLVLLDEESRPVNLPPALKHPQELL
UniProt P78344: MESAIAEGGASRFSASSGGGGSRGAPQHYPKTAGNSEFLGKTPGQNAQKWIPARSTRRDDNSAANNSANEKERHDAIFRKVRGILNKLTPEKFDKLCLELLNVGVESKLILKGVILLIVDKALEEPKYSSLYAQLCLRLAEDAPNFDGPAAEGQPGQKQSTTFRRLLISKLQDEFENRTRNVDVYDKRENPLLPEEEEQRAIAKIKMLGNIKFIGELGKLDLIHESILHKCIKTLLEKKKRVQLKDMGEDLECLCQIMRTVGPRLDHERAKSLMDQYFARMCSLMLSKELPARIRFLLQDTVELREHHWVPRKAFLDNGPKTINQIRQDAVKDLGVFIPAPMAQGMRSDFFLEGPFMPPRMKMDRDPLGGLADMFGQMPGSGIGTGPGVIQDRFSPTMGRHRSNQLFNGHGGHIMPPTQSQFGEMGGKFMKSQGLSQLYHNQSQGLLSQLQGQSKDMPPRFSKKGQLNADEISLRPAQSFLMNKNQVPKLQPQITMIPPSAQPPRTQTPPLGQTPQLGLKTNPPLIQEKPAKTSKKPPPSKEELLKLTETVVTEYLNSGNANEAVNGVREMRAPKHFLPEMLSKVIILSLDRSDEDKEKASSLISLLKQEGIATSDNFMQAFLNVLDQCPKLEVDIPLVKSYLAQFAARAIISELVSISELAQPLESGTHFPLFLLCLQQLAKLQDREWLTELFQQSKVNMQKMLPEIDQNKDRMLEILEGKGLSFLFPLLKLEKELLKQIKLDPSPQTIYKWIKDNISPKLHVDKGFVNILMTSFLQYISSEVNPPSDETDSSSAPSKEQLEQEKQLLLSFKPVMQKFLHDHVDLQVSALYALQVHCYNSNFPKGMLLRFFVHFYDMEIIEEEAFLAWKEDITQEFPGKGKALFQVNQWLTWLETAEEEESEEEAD
UniProt Q7Z434: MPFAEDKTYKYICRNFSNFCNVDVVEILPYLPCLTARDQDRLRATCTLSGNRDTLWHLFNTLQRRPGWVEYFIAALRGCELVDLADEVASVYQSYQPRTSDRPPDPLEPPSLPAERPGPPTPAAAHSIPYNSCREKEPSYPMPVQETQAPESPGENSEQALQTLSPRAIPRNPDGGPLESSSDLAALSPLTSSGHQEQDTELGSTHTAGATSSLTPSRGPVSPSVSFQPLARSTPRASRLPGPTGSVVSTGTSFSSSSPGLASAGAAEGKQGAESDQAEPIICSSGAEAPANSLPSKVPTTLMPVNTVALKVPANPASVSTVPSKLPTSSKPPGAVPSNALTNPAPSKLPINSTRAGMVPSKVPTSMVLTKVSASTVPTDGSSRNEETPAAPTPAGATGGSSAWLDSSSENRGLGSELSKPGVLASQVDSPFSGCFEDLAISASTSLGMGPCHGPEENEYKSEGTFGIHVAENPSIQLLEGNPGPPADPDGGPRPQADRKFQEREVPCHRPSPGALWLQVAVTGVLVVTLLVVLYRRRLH
UniProt P52948, residues 1-880: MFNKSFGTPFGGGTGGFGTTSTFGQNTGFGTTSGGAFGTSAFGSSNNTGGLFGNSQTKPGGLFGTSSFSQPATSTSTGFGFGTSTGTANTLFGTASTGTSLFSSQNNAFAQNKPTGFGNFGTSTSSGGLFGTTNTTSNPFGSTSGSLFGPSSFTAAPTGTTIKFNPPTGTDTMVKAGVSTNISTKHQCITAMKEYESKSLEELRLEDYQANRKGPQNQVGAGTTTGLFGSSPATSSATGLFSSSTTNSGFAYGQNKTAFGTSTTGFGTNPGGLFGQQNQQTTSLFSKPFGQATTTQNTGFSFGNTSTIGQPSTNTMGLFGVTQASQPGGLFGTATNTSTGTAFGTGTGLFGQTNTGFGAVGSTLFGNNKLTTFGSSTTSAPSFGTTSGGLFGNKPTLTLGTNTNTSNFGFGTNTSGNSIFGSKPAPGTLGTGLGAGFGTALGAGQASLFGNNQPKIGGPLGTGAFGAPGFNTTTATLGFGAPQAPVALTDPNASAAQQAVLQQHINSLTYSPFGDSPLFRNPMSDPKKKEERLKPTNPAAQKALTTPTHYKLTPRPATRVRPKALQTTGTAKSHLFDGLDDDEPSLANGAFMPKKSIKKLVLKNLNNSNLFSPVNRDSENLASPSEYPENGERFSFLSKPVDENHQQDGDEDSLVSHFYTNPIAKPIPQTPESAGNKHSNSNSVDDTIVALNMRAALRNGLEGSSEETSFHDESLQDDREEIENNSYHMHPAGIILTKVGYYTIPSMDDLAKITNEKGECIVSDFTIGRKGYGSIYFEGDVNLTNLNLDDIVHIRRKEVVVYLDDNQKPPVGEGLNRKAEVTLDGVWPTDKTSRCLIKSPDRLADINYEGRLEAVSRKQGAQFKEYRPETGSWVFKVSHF

Assays:
Experiment in all cases: proximity labelling
[1] = biological target: SARS-CoV-2 NSP5, HA-BASU fusion (SARS-CoV-2) (UniProt P0DTD1)
[2] = biological target: SARS-CoV-2 NSP1, HA-BASU fusion (SARS-CoV-2) (UniProt P0DTD1)
[3] = biological target: SARS-CoV-2 ORF6, HA-BASU fusion (SARS-CoV-2) (UniProt P0DTC6)
[4] = biological target: SARS-CoV-2 ORF9b, HA-BASU fusion (SARS-CoV-2) (UniProt P0DTD2)

With CDKN2AIP (from UniProt Q9NXV6 1-580) the binding [1] was “binds”.
With EIF3B (from UniProt P55884 1-814) the binding [2] was “binds”.
With EIF4G2 (from UniProt P78344 1-907) the binding [2] was “binds”.
With “Mitochondrial Activation of Viral Signaling (MAVS) (from UniProt Q7Z434 1-540)” the binding [3] was “binds”.
Nup98 (from UniProt P52948 1-880) was tested, and the binding [4] was “no binding”.
